Article doi:10.1101/636712
Like-named read-outs stand apart in the source and are kept apart here. Results are given in words; binding and its absence hold for the method and conditions named. Binding seen in cells or lysates may run through a third protein. Some binding calls cover weakened binding; strength is not graded here. For some of these results: Sequences can lack the tags named with a protein. One block for each molecule: values may come before it.

Amino acid sequences for entries named in this document (tags omitted). Residues count along the entry.
UniProt Q9BXW4, residues 1-126: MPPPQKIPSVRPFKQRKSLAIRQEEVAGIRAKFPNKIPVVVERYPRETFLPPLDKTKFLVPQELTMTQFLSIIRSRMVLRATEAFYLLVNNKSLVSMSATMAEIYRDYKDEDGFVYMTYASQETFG
UniProt O95166: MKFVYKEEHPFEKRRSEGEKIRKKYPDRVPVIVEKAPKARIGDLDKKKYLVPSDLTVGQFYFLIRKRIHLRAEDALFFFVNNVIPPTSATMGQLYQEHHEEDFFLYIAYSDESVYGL

Legend:
Experiment in all cases: co-IP
GFP-LC3C (human) [1] = molecular target: GFP-LC3C (human) (UniProt Q9BXW4)
GFP-GABARAP (human) [2] = molecular target: GFP-GABARAP (human) (UniProt O95166)
GFP-LC3A (human) [3] = molecular target: GFP-LC3A (human) (UniProt Q9H492)
[4] = molecular target: T1, GFP-LMX1A (TRE-GFP-LMX1A) (human) (UniProt Q8TE12)
T1 sequence: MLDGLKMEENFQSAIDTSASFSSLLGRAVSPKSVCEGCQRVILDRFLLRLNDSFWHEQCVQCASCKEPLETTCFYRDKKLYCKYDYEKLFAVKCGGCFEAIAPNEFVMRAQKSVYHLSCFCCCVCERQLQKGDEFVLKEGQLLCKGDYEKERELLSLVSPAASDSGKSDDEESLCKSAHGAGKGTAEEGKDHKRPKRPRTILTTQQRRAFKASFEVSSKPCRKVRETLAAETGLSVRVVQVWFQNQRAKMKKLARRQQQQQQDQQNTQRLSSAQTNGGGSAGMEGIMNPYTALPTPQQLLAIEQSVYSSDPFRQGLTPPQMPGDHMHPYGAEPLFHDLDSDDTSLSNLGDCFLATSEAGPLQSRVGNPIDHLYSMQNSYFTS

GFP-LC3C (human) [5] = molecular target: GFP-LC3C (human) (UniProt Q9BXW4); remark: listed apart in the source
GFP-GABARAP (human) [6] = molecular target: GFP-GABARAP (human) (UniProt O95166); remark: listed apart in the source
GFP-LC3A (human) [7] = molecular target: GFP-LC3A (human) (UniProt Q9H492); remark: listed apart in the source

binding (GFP-LC3C (human) [1]): binds
binding (GFP-GABARAP (human) [2]): binds
binding (GFP-LC3A (human) [3]): binds
Molecule: LMX1B-FLAG (from UniProt O60663-1 1-402)

binding [4]: binds
Molecule: mCherry-LMX1B (TRE-mCherry-LMX1B) (from UniProt O60663-1 1-402)

binding (GFP-LC3C (human) [5]): binds
binding (GFP-GABARAP (human) [6]): binds
binding (GFP-LC3A (human) [7]): binds
B1: LIR mutant (Y309A/L312A) LMX1B-FLAG (protein, UniProt O60663-1 1-402)
chain: MDIATGPESLERCFPRGQTDCAKMLDGIKMEEHALRPGPATLGVLLGSDCPHPAVCEGCQRPISDRFLMRVNESSWHEECLQCAACQQALTTSCYFRDRKLYCKQDYQQLFAAKCSGCMEKIAPTEFVMRALECVYHLGCFCCCVCERQLRKGDEFVLKEGQLLCKGDYEKEKDLLSSVSPDESDSVKSEDEDGDMKPAKGQGSQSKGSGDDGKDPRRPKRPRTILTTQQRRAFKASFEVSSKPCRKVRETLAAETGLSVRVVQVWFQNQRAKMKKLARRHQQQQEQQNSQRLGQEVLSSRMEGMMASATPAAPPQQQIVAMEQSPYGSSDPFQQGLTPPQMPGDHMNPYGNDSIFHDIDSDTSLTSLSDCFLGSSDVGSLQARVGNPIDRLYSMQSSYFAS
